# “Also recorded” adds a separate entry of the source. At least one peptide structure holds a part that was inferred or is arguable (an end, a ring closure or a residue).
# Assays:
# [1] = system: HCT-116/RFP (δOR negative) and HCT-116/δOR tumors; experiment: Intravital fluorescence microscopy, dorsal skin-fold window chamber tumor xenograft; format: in vivo, mice; details: 45 nmol/kg i.v.; imaged up to 24 hours post-injection; listed as Dmt-Tic-Cy5
# Experimental: (§1) The inventors evaluated a synthetic peptide δ-opioid receptor (δOR) antagonist Dmt-Tic (FIG. 8) conjugated to two different fluorescent dyes, Cy5 and IR800CW, as further discussed below. The pharmacokinetics (PK) of Dmt-Tic-Cy5 was evaluated in a subcutaneous xenograft model using HCT-116 cells (δOR−) and HCT-116 cells that were engineered to overexpress the δOR (δOR+). Tumor uptake of Dmt-Tic-Cy5 was also studied by intravital fluorescence microscopy using a dorsal skin-fold window chamber tumor xenograft model.
# Mice containing dorsal skin-fold window chamber tumor xenografts were injected with 45 nmol/kg Dmt-Tic-Cy5 i.v. (FIG. 12) Images were acquired continuously for 15 minutes post-injection and at various time points after. […] Dmt-Tic-Cy5 is taken up and extravasates from the rat GFP vessels within seconds post tail vein injection (top). Dmt-Tic-Cy5 is cleared by 33 minutes post tail vein injection (bottom). Light gray represents the RFP signal from the tumor cells, medium gray represents the GFP signal from the rat microvessels, and dark gray is the Cy5 signal from the ligand. […] Shown are the Cy5 signal from the ligand in dark gray (left images) and overlays of the Cy5 signal and white light channels (right images) pre-injection and 25 minutes, 45 minutes, 60 minutes, 1 hour 25 minutes, and 24 hours post-injection.
# [2] = system: HCT-116/δOR (δOR+) tumor relative to HCT-116 (δOR−) tumor; format: in vivo, mice
# Experimental: as §1
# For PK experiments, mice were injected with 4.5 nmol/kg Dmt-Tic-Cy5 i.v. and images acquired at various time points from 0-168 h ([…]). Graphs 9B and 9C depict the mean fluorescent signal obtained from the δOR− tumors and δOR+ tumors over a time course of 0-168 h. Graph […] depicts the mean fold of enhancement (δOR+ tumor signal/δOR− tumor signal) over time. The tumor signals were quantified, averaged (n≧3 for each time point), and plotted over time. The graphs 9B and 9C show maximum probe uptake in the δOR+ tumor at 3 h. FIG. 9D depicts the maximum signal fold of enhancement (27±9 s.d.) at 18 h in δOR+ relative to δOR− tumors.
# Mice then were tail vein injected with 10 μg of ligand 1 and images were acquired at different times post-injection using a VersArray 1300B cooled CCD camera, a filtered fiberoptic light source and a tunable emission filter (CRI, Inc.). After 15 min post-injection, the fluorescence intensity maps indicated systemic presence of the compound with high intensity throughout the animal (not shown). […] Histograms were generated for each ROI, and mean fluorescence intensities were determined for each time point. […]
# Initial experiments were performed using the HCT-116 parental cell line and HCT-116/δOR engineered cells in a bilateral flank subcutaneous xenograft model in mice. […] Mice were injected intravenously with the designated concentrations of Dmt-Tic-IR800 and fluorescence imaging was performed at various time points post-injection using the IVIS200 imaging system. The data were analyzed for differences in the intensity of the signal with the various concentrations and also for selectivity of the ligand for the target-expressing relative to the control tumors (fold of enhancement). […] FIG. 24 depicts the sequence of representative in vivo fluorescence images following administration of the optimized dose at different time points showing selective tumor and systemic uptake of the agent and systemic clearance via the kidney. FIG. 25 depicts the pharmacokinetics of uptake and clearance in the positive tumor (engineered cells), negative tumor (parental cells) and kidneys by quantification of fluorescence signal at each time point. […]
smiles,measurement,setting,value
"CC[N+]1=C(/C=C/C=C/C=C2/N(CCCCCC(=O)NCCN3C(=O)CC(SCCC(=O)NCCCC[C@H](NC(=O)[C@@H]4Cc5ccccc5CN4C(=O)[C@@H](N)Cc4c(C)cc(O)cc4C)C(=O)O)C3=O)c3ccc(S(=O)(=O)O)cc3C2(C)C)C(C)(C)c2cc(S(=O)(=O)[O-])ccc21 (stereo partly drawn) [ligand 1, Dmt-Tic-Lys(Cy5)-OH]",uptake in HCT-116/δOR tumor,[1],tumor cell uptake was observed by 24 h post administration; also recorded: taken up by the tumor with increasing accumulation in the tumor area until 24 hours post-injection
same,maximum signal fold of enhancement (δOR+ tumor signal/δOR− tumor signal),"[2]; 4.5 nmol/kg i.v., at 18 h, mean ± s.d.",27±9 fold
same,tumor selectivity in fluorescence image,"[2]; 40 nmol/kg, 24 h post-administration",selective for the δOR+ tumor
same,clearance and tumor retention,"[2]; SCID mice, 10 μg tail vein, at 24 h",systemically cleared and retained in the δOR-containing but not the parental tumors
same,fluorescence intensity of δOR(+) versus δOR(−) tumors,"[2]; SCID mice, after 72 h",all δOR(+) tumors had elevated fluorescence intensities compared to the corresponding δOR(−) tumors
